# This is one part of the list.
# B1: Flo11 (Saccharomyces cerevisiae), P08640 (protein)
# chain: MQRPFLLAYLVLSLLFNSALGFPTALVPRGSSEGTSCNSIVNGCPNLDFNWHMDQQNIMQYTLDVTSVSWVQDNTYQITIHVKGKENIDLKYLWSLKIIGVTGPKGTVQLYGYNENTYLIDNPTDFTATFEVYATQDVNSCQVWMPNFQIQFEYLQGSAAQYASSWQWGTTSFDLSTGCNNYDNQGHSQTDFPGFYWNIDCDNNCGGTKSSTTTSSTSESSTTTSSTSESSTTTSSTSESSTTTSSTSESSTSSSTTAPATPTTTSCTKEKPTPPTTTSCTKEKPTPPHHDTTPCTKKKTTTSKTCTKKTTTPVPTPSSSTTESSSAPVPTPSSSTTESSSAPVTSSTTESSSAPVPTPSSSTTESSSAPVTSSTTESSSAPVTSSTTESSSAPVPTPSSSTTESSSAPVTSSTTESSSAPVTSSTTESSSAPVTSSTTESSSAPVTSSTTESSSAPVPTPSSSTTESSSAPVTSSTTESSSAPVPTPSSSTTESSSAPVTSSTTESSSAPVPTPSSSTTESSSAPAPTPSSSTTESSSAPVTSSTTESSSAPVPTPSSSTTESSSTPVTSSTTESSSAPVPTPSSSTTESSSAPVPTPSSSTTESSSAPAPTPSSSTTESSSAPVTSSTTESSSAPVPTPSSSTTESSSAPVPTPSSSTTESSSAPVPTPSSSTTESSSAPVTSSTTESSSAPVTSSTTESSSAPVPTPSSSTTESSSAPVPTPSSSTTESSSAPVPTPSSSTTESSSAPVTSSTTESSSAPVPTPSSSTTESSSAPVPTPSSSTTESSSAPVPTPSSSTTESSVAPVPTPSSSSNITSSAPSSTPFSSSTESSSVPVPTPSSSTTESSSAPVSSSTTESSVAPVPTPSSSSNITSSAPSSIPFSSTTESFSTGTTVTPSSSKYPGSQTETSVSSTTETTIVPTKTTTSVTTPSTTTITTTVCSTGTNSAGETTSGCSPKTVTTTVPTTTTTSVTTSSTTTITTTVCSTGTNSAGETTSGCSPKTITTTVPCSTSPSETASESTTTSPTTPVTTVVSTTVVTTEYSTSTKPGGEITTTFVTKNIPTTYLTTIAPTPSVTTVTNFTPTTITTTVCSTGTNSAGETTSGCSPKTVTTTVPCSTGTGEYTTEATTLVTTAVTTTVVTTESSTGTNSAGKTTTGYTTKSVPTTYVTTLAPSAPVTPATNAVPTTITTTECSAATNAAGETTSVCSAKTIVSSASAGENTAPSATTPVTTAIPTTVITTESSVGTNSAGETTTGYTTKSIPTTYITTLIPGSNGAKNYETVATATNPISIKTTSQLATTASASSVAPVVTSPSLTGPLQSASGSAVATYSVPSISSTYQGAANIKVLGNFMWLLLALPVVF
# What was measured:
# Experiment in all cases: glycan array binding signal (z-score within array); higher = stronger binding
# Settings in all cases: glycan notation: IUPAC condensed, linker removed
# [1] = target: Neu5Ac(a2-3)Gal(b1-4)GlcNAc(b1-3)Gal
# Summary of the method: (§1)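 From the Consortium for Functional Glycomics database, 3228 arrays were curated, keeping only those whose protein sequence was available. Binding is given as a within-array Z-score averaged across arrays sharing a protein sequence and across linkers. Negative Z-scores can be read as non-binding.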
# [2] = target: Neu5Ac(a2-3)Gal(b1-4)GlcNAc(b1-3)Gal(b1-3)GlcNAc
# Summary of the method: as §1
# [3] = target: Neu5Ac(a2-3)Gal(b1-4)GlcNAc(b1-3)Gal(b1-4)GlcNAc
# Summary of the method: as §1
# [4] = target: Neu5Ac(a2-3)Gal(b1-4)GlcNAc(b1-3)Gal(b1-4)GlcNAc(b1-3)Gal(b1-4)GlcNAc
# Summary of the method: as §1
# [5] = target: Neu5Ac(a2-3)Gal(b1-4)GlcNAc(b1-3)Gal(b1-4)[Fuc(a1-3)]GlcNAc
# Summary of the method: as §1
# [6] = target: Neu5Ac(a2-3)Gal(b1-4)GlcNAc(b1-3)GalNAc
# Summary of the method: as §1
# [7] = target: Neu5Ac(a2-3)Gal(b1-4)GlcNAc(b1-6)[Gal(b1-3)]GalNAc
# Summary of the method: as §1
# [8] = target: Neu5Ac(a2-3)Gal(b1-4)GlcNAc(b1-6)[Neu5Ac(a2-3)Gal(b1-3)]GalNAc
# Summary of the method: as §1
# [9] = target: Neu5Ac(a2-3)Gal(b1-4)GlcNAc6S
# Summary of the method: as §1
# [10] = target: Neu5Ac(a2-3)Gal(b1-4)[Fuc(a1-3)]GlcNAc
# Summary of the method: as §1
# [11] = target: Neu5Ac(a2-3)Gal(b1-4)[Fuc(a1-3)]GlcNAc(b1-3)Gal
# Summary of the method: as §1
# [12] = target: Neu5Ac(a2-3)Gal(b1-4)[Fuc(a1-3)]GlcNAc(b1-3)Gal(b1-4)GlcNAc
# Summary of the method: as §1
# [13] = target: Neu5Ac(a2-3)Gal(b1-4)[Fuc(a1-3)]GlcNAc(b1-3)Gal(b1-4)[Fuc(a1-3)]GlcNAc(b1-3)Gal(b1-4)[Fuc(a1-3)]GlcNAc
# Summary of the method: as §1
# [14] = target: Neu5Ac(a2-3)Gal(b1-4)[Fuc(a1-3)]GlcNAc(b1-3)GalNAc
# Summary of the method: as §1
# [15] = target: Neu5Ac(a2-3)Gal(b1-4)[Fuc(a1-3)]GlcNAc(b1-6)[Gal(b1-3)]GalNAc
# Summary of the method: as §1
# [16] = target: Neu5Ac(a2-3)Gal(b1-4)[Fuc(a1-3)]GlcNAc6S
# Summary of the method: as §1
# [17] = target: Neu5Ac(a2-3)Gal6S(b1-4)GlcNAc
# Summary of the method: as §1
# [18] = target: Neu5Ac(a2-3)Gal6S(b1-4)[Fuc(a1-3)]GlcNAc
# Summary of the method: as §1
# [19] = target: Neu5Ac(a2-3)GalNAc
# Summary of the method: as §1
# [20] = target: Neu5Ac(a2-3)GalNAc(b1-4)GlcNAc
# Summary of the method: as §1
# [21] = target: Neu5Ac(a2-3)[GalNAc(b1-4)]Gal(b1-4)Glc
# Summary of the method: as §1
# [22] = target: Neu5Ac(a2-3)[GalNAc(b1-4)]Gal(b1-4)GlcNAc
# Summary of the method: as §1
# [23] = target: Neu5Ac(a2-3)[GalNAc(b1-4)]Gal(b1-4)GlcNAc(b1-3)GalNAc
# Summary of the method: as §1
# [24] = target: Neu5Ac(a2-3)[Neu5Ac(a2-6)]GalNAc
# Summary of the method: as §1
# [25] = target: Neu5Ac(a2-6)Gal
# Summary of the method: as §1
# [26] = target: Neu5Ac(a2-6)Gal(b1-3)GlcNAc(b1-3)[Gal(b1-4)GlcNAc(b1-6)]Gal(b1-4)Glc
# Summary of the method: as §1
# [27] = target: Neu5Ac(a2-6)Gal(b1-4)Glc
# Summary of the method: as §1
# [28] = target: Neu5Ac(a2-6)Gal(b1-4)GlcNAc
# Summary of the method: as §1
# [29] = target: Neu5Ac(a2-6)Gal(b1-4)GlcNAc(b1-2)Man(a1-3)Man(b1-4)GlcNAc(b1-4)GlcNAc
# Summary of the method: as §1
# [30] = target: Neu5Ac(a2-6)Gal(b1-4)GlcNAc(b1-2)Man(a1-3)[Gal(b1-4)GlcNAc(b1-2)Man(a1-6)]Man(b1-4)GlcNAc(b1-4)GlcNAc
# Summary of the method: as §1
# [31] = target: Neu5Ac(a2-6)Gal(b1-4)GlcNAc(b1-2)Man(a1-3)[GlcNAc(b1-2)Man(a1-6)]Man(b1-4)GlcNAc(b1-4)GlcNAc
# Summary of the method: as §1
# [32] = target: Neu5Ac(a2-6)Gal(b1-4)GlcNAc(b1-2)Man(a1-3)[GlcNAc(b1-2)Man(b1-4)GlcNAc(b1-2)Man(a1-6)]Man(b1-4)GlcNAc(b1-4)GlcNAc
# Summary of the method: as §1
# [33] = target: Neu5Ac(a2-6)Gal(b1-4)GlcNAc(b1-2)Man(a1-3)[Man(a1-6)]Man(b1-4)GlcNAc(b1-4)GlcNAc
# Summary of the method: as §1
# [34] = target: Neu5Ac(a2-6)Gal(b1-4)GlcNAc(b1-2)Man(a1-3)[Neu5Ac(a2-6)Gal(b1-4)GlcNAc(b1-2)Man(a1-6)]Man(b1-4)GlcNAc(b1-4)GlcNAc
# Summary of the method: as §1
# [35] = target: Neu5Ac(a2-6)Gal(b1-4)GlcNAc(b1-2)Man(a1-6)Man(b1-4)GlcNAc(b1-4)GlcNAc
# Summary of the method: as §1
binder,measurement,setting,value
B1,glycan array binding signal (z-score),[1],0.004
same,glycan array binding signal (z-score),[2],0.266
same,glycan array binding signal (z-score),[3],-0.017
same,glycan array binding signal (z-score),[4],0.133
same,glycan array binding signal (z-score),[5],1.43
same,glycan array binding signal (z-score),[6],-0.424
same,glycan array binding signal (z-score),[7],-1.28
same,glycan array binding signal (z-score),[8],-0.861
same,glycan array binding signal (z-score),[9],0.179
same,glycan array binding signal (z-score),[10],-0.261
same,glycan array binding signal (z-score),[11],-1.26
same,glycan array binding signal (z-score),[12],2.91
same,glycan array binding signal (z-score),[13],0.568
same,glycan array binding signal (z-score),[14],3.06
same,glycan array binding signal (z-score),[15],0.861
same,glycan array binding signal (z-score),[16],-0.59
same,glycan array binding signal (z-score),[17],-0.672
same,glycan array binding signal (z-score),[18],1.29
same,glycan array binding signal (z-score),[19],0.965
same,glycan array binding signal (z-score),[20],-1.32
same,glycan array binding signal (z-score),[21],0.077
same,glycan array binding signal (z-score),[22],0.303
same,glycan array binding signal (z-score),[23],-0.803
same,glycan array binding signal (z-score),[24],0.271
same,glycan array binding signal (z-score),[25],0.154
same,glycan array binding signal (z-score),[26],-0.162
same,glycan array binding signal (z-score),[27],0.508
same,glycan array binding signal (z-score),[28],0.108
same,glycan array binding signal (z-score),[29],0.843
same,glycan array binding signal (z-score),[30],-0.39
same,glycan array binding signal (z-score),[31],-0.888
same,glycan array binding signal (z-score),[32],-0.074
same,glycan array binding signal (z-score),[33],1.68
same,glycan array binding signal (z-score),[34],-0.137
same,glycan array binding signal (z-score),[35],-0.731

# 2 records drawn at random from those above, as already listed:
binder,measurement,setting,value
B1,glycan array binding signal (z-score),[9],0.179
same,glycan array binding signal (z-score),[7],-1.28
